From PubChem BioAssay AID493014 (National Center for Advancing Translational Sciences (NCATS), 2011)
Some of the results follow. Further columns of the screen follow, without active or inactive calls. The list favours compounds with an active or inconclusive main result. Words in brackets tell the shape of the fitted curve; partial curves, single points and poor fits give uncertain potencies.

Assay: qHTS Assay to Find Inhibitors of Chronic Active B-Cell Receptor Signaling
Conditions: ABC-DLBCL IkBa-CBG/CBR reporter, luminescence ratio (green luciferase fused to IkBa over red control in TMD8 lymphoma cells), 4 h
Outline: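 TMD8 human ABC-DLBCL cells with doxycycline-inducible IκBα–green luciferase fusion and unfused red luciferase, in 0.5% FBS medium; compounds up to 46 uM, 4 h at 37C. Green/red luminescence ratio, filter-overlap corrected, fitted to concentration-response curves.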

[1] = measured here: CBR red luminescence, cell number
[2] = measured here: IkBa-CBG green luminescence

| SMILES | AC50 [1] | AC50 [2] |
| --- | --- | --- |
| O=C(N/N=C/c1cc(Cl)ccc1O)c1ccccc1Br | 3.55 µM [falling, partial curve, poor fit] |  |
| Cn1c(=O)c2c(nc(NCc3ccc4c(c3)OCO4)n2C)n(C)c1=O | 3.26 µM [falling, single point] |  |
| CC[C@@H](C(=O)[C@@H](C)[C@@H](O)[C@H](C)CCc1ccc(C)c(O)c1C(=O)O)[C@H]1O[C@](CC)([C@H]2CC[C@](O)(CC)[C@H](C)O2)C[C@@H]1C | 14.1 µM [rising, single point] |  |
| Cc1ccc(C(=O)COC(=O)c2ccc(O)cc2)cc1 | 15.8 µM [falling, partial curve, poor fit] |  |
| O=C(N/N=C/c1ccc2c(c1)OCO2)c1cccc(NC(=O)c2ccccc2Cl)c1 | 0.562 µM [falling, full curve, poor fit] |  |
| COC(=O)c1ccc(C(=O)NC(=S)Nc2nc3c(s2)CC(C)CC3)cc1 (configuration not stated) | 1.84 µM [falling, full curve] |  |
| CC(=O)c1sc(NC(=O)c2ccc(C)cc2)nc1C | 5.62 µM [falling, single point] |  |
| CC(C)(C)OC(=O)NCCCC[C@@H](C(=O)NCCCCCCCCCCC(=O)N1CCN(C(=O)OC(C)(C)C)CC1)n1cc(CCO)nn1 | 23.1 µM [falling, single point] |  |
| CCOC(=O)C(=CNNc1c(C)csc1C(=O)OC)C(=O)OCC | 28.2 µM [falling, single point] |  |
| COc1cc(-c2nnc(COc3ccc(Cl)cc3C)o2)cc(OC)c1OC | 5.17 µM [rising, full curve] |  |
| O=c1cc(-c2ccc(F)cc2)[nH][nH]1 | 23.1 µM [falling, partial curve] | 20.6 µM [falling, partial curve, poor fit] |
| CCCCNC(=O)c1ccc(N2CCC3(CC2)OCCO3)c([N+](=O)[O-])c1 | 13 µM [rising, partial curve] |  |
| Cc1cccc(NC(=O)CN2C(=O)S/C(=C\c3ccc(-c4cccc(C(=O)O)c4C)o3)C2=O)c1 | 2.51 µM [falling, partial curve, poor fit] |  |
| Cc1cccc(-c2ocnc2C(=O)Nc2ccccc2C(=O)N2CCCC2)c1 | 7.08 µM [falling, partial curve, poor fit] |  |
| COc1cc(SC)ccc1C(=O)Nc1ncc(Cl)cc1Cl | 0.355 µM [rising, full curve, poor fit] |  |
| O=C(CSc1nnc(-c2ccccc2O)o1)N1CCc2ccccc2C1 | 2.31 µM [rising, partial curve, poor fit] |  |
| O=C(Cn1nc(C(=O)O)c2ccccc2c1=O)c1c[nH]c2ccccc12 | 35.5 µM [falling, single point] |  |
| CC1(CCc2ccc(O)cc2)NC(=O)NC1=O (configuration not stated) | 23.1 µM [rising, single point] | 29.1 µM [falling, partial curve, poor fit] |
| Cc1nnc(SCC(=O)Nc2cccc(S(=O)(=O)N3CCCCC3)c2)s1 | 6.51 µM [rising, single point] |  |
| COC(=O)C(N)Cc1ccc(O)c(O)c1 (configuration not stated) | 5.8 µM [falling, single point] |  |
| Fc1ccc(-c2nnc3ccc(N4CCc5ccccc5C4)nn23)cc1 | 32.6 µM [falling, single point] |  |

| SMILES | AC50 [1] | AC50 [2] |
| --- | --- | --- |
| CCOc1ccc(CC2S/C(=N/c3ccccn3)NC2=O)cc1 (configuration not stated) | 3.16 µM [rising, full curve] |  |
| O=C(N/N=C/c1ccccn1)c1ccccc1 | 11.6 µM [falling, partial curve] |  |
| Cc1sc(NC(=O)c2ccco2)c(C(c2cccnc2)N2CCN(C)CC2)c1C (configuration not stated) | 35.5 µM [falling, partial curve, poor fit] |  |
| CCc1ccc(-n2c(=O)c3ccc(C(=O)NCCc4ccccc4)cc3n(CC(N)=O)c2=O)cc1 | 20 µM [rising, partial curve, poor fit] |  |
| Cc1ccccc1C(=O)N1CCN(c2ccc(NC(=O)c3ccc4c(c3)OCO4)cc2)CC1 | 14.1 µM [falling, partial curve, poor fit] |  |
| CCn1c(SCC(=O)Nc2ccccc2N2CCOCC2)nnc1-c1ccccc1O | 18.4 µM [falling, single point] |  |
| CCOC(=O)CC1C(=O)NCCN1Cc1cccc(C(F)(F)F)c1 (configuration not stated) | 6.51 µM [falling, single point] |  |
| Cc1ccc(OC(C)C(=O)Nc2ccccc2C(=O)NCc2cccnc2)cc1C (configuration not stated) | 35.5 µM [falling, single point] |  |
| Cc1ccc2nc(SCC(=O)c3ccc(O)cc3O)[nH]c2c1 | 0.447 µM [rising, full curve, poor fit] |  |
| CCN(CC)CCC(=O)N1c2ccccc2Sc2ccc(NC(=O)OC)cc21 | 15.8 µM [falling, partial curve] |  |
| C=CCNc1nc(-c2cc3ccccc3o2)cs1 | 5.17 µM [falling, partial curve] |  |
| O=C(CCCN1C(=O)/C(=C/c2ccc(F)cc2)SC1=S)NCCCn1ccnc1 | 3.16 µM [falling, full curve] |  |
| COc1cc(C2C3C(=O)N(c4ccccc4)C(=O)C3ON2c2ccccc2)ccc1O (configuration not stated) | 17.8 µM [falling, single point] |  |
| S=C1NC(c2ccccc2)=NCN1c1ccccc1 | 6.51 µM [rising, single point] |  |
| CCCCCc1c(C)nc(Nc2ccccc2)[nH]c1=O | 0.184 µM [rising, full curve, poor fit] |  |
| COc1ccccc1NC(=O)c1ccc(Br)o1 | 2.31 µM [rising, partial curve, poor fit] |  |
| CCC/C(O)=C1\C(=O)CC(C)(C)CC1=NCc1ccccc1 | 11.2 µM [falling, single point] |  |
| Cc1ccc(NC(=O)CSc2nc(-c3ccco3)nc3cc(=O)[nH]n23)c(Cl)c1 | 14.1 µM [rising, single point] |  |
| O=C(Nc1cccc(N2C(=O)C3CCCCC3C2=O)c1)c1ccccc1 (configuration not stated) | 8.91 µM [falling, partial curve, poor fit] |  |
| COc1ccccc1-c1cc(C(F)(F)F)nc(S(=O)(=O)CCCC(=O)O)n1 | 18.4 µM [falling, single point] |  |
| COc1cccc(C(=O)Nc2nc3ccc(S(C)(=O)=O)cc3s2)c1 | 8.91 µM [falling, partial curve, poor fit] |  |

| SMILES | AC50 [1] | AC50 [2] |
| --- | --- | --- |
| COc1ccccc1C(CNc1ncnc2sc(C)c(C)c12)N(C)C (configuration not stated) | 5.01 µM [falling, full curve, poor fit] |  |
| COc1cc2c(cc1NC(=O)CSc1nccn1C)oc1ccccc12 | 29.1 µM [falling, single point] |  |
| C=CCN(c1ccc(Cl)cc1)S(=O)(=O)c1cccc(C(=O)OCC(=O)N(C)C)c1 | 35.5 µM [falling, single point] |  |
| O=C(NCC1CCCO1)c1cccc(NC(=O)c2ccc(Br)cc2)c1 (configuration not stated) | 17.8 µM [falling, single point] |  |
| Cc1ccc(S(=O)(=O)N2CCOCC2)cc1C(=O)OCC(=O)NCc1ccc2c(c1)OCO2 | 0.184 µM [rising, full curve, poor fit] |  |
| O=C(N/N=C/c1cc2ccccc2[nH]1)c1ccccc1Cl | 10 µM [falling, partial curve] |  |
| CCCOC(=O)C1C2C=C[C@]3(CN(CCc4ccccc4)C(=O)[C@H]13)O2 (some centres not stated) | 7.94 µM [rising, partial curve, poor fit] |  |
| CCc1ccccc1Nc1nc2ccccc2n1C(C)C | 35.5 µM [rising, single point] |  |
| O=C(N/N=C/c1cc(O)ccc1Br)c1cccnc1 | 22.4 µM [falling, single point] |  |
| O=C(CCCC(=O)N(CC(=O)NC1CCCCC1)c1ccccc1F)Nc1ccccn1 | 28.2 µM [falling, single point] |  |
| O=C(NCCc1ccccc1)c1ccc2nc(-c3ccco3)c(-c3ccco3)nc2c1 | 8.2 µM [falling, partial curve] | 16.4 µM [rising, partial curve, poor fit] |
| Cc1ccccc1NC(=O)Nc1ccc2c(c1)OCO2 | 2.51 µM [falling, full curve] |  |
| Cc1ccc(S(=O)(=O)NN2C(=O)/C(=C/c3cccn3C)SC2=S)cc1 | 32.6 µM [falling, partial curve, poor fit] | 25.9 µM [rising, partial curve, poor fit] |
| O=C(Nc1ccccc1N1CCOCC1)c1cc2c(s1)CCCCC2 | 25.1 µM [rising, single point] |  |
| C(=C\n1nnc2ccccc21)/c1ccccn1 | 14.6 µM [falling, partial curve, poor fit] |  |
| CC(=O)c1cc2c(cc1N/C(=N/S(=O)(=O)c1ccc(C)cc1)c1ccc(Cl)cc1)OCO2 | 0.112 µM [falling, full curve, poor fit] |  |
| O=C(NNC(=S)NC(=O)c1ccco1)c1ccc(NC(=O)c2ccccc2)cc1 | 35.5 µM [falling, single point] |  |
| NNC(=O)c1ccc(Cn2cc(Br)cn2)o1 | 20 µM [falling, single point] |  |
| O=C(CSC(=S)N1CCOCC1)Nc1nc(=O)c2ccccc2s1 | 2.59 µM [falling, full curve] |  |
| NC(=O)c1nn(-c2cccc(Cl)c2)c(=O)cc1O | 25.1 µM [falling, single point] |  |
| N#Cc1cc(Cl)c(NCC2CCCO2)cc1C#N (configuration not stated) | 3.98 µM [rising, single point] |  |

Quoted from the listing:
AC50 [1] with `O=C(NCC1CCCO1)c1cccc(NC(=O)c2ccc(Br)cc2)c1` (configuration not stated) reads 17.8 µM [falling, single point]
AC50 [1] with `COc1ccccc1C(CNc1ncnc2sc(C)c(C)c12)N(C)C` (configuration not stated) reads 5.01 µM [falling, full curve, poor fit]
AC50 [1] with `O=C(N/N=C/c1cc2ccccc2[nH]1)c1ccccc1Cl` reads 10 µM [falling, partial curve]
AC50 [1] with `Cc1ccccc1NC(=O)Nc1ccc2c(c1)OCO2` reads 2.51 µM [falling, full curve]
